Experimental data from PMC12222587, “A2B adenosine receptor-triggered intracellular calcium mobilization: Cell type-dependent involvement of Gi, Gq, Gs proteins and protein kinase C” (Purinergic Signalling, 2025).

Test system: HEK293 cells

SMILES: COc1ccc(CC(C)NCC(O)c2ccc(O)c(NC=O)c2)cc1 (stereo not shown) [formoterol]
- Agonist-triggered Ca2+ increase: not able to observe
